# Assay results taken from patent US20040198707A1, “Means and method for hormonal contraception” (priority 2001, published 2004).
# At least one structure is not confirmed: it was looked up by name or label, or the drawing left a doubt.
# Assay: conversion factors for progestogens: amount equivalent to a given amount of levonorgestrel
# Details: estimate of the amount of progestogen equivalent to a given amount of levonorgestrel (levonorgestrel = 1)
# Text: In order to determine for a specific biogenic estrogen or synthetic estrogen the amounts that are equivalent to a cited amount of ethinyl estradiol or 17beta-estradiol, the method described by Allen and Doisy may suitably be used (Allen A., Doisy E. A., “An ovarian hormone. Preliminary report on its localization, extraction and partial purification, and action in test animals. JAMA (1923), 81, 819-821). Similarly, in order to determine for a given progestogen the amount equivalent to cited amount of levonorgestrel the method originally described by McPhail can be used (Mc Phail M. K. “The assay of progestin” J Physiol (1934), 83, 145-156). A more recent description of this method can be found in an article written by Overbeek G. A., de Visser J. “A new substance with progestational activity”, Acta Endocrinol (1956), 22,318-329. It is noted that the aforementioned methods will provide useful indications about the anticipated estrogen potency or progestogen potency of a particular hormone. However, to accurately determine the equivalent amounts that are referred to above, it is advisable to additionally conduct in vivo studies in human females.
# For guidance the table below provides the conversion factors for a number of progestogens that may suitably be used in the method of the invention. […]
compound,measurement,value
C#C[C@]1(O)CC[C@H]2[C@@H]3CCC4=CC(=O)CC[C@@H]4[C@H]3CC[C@@]21CC [levonorgestrel],Conversion factor,1
